For at least one entry, the source does not settle the construct or the ends of the probe. A negative result means that nothing was seen under these conditions. Where a protein sequence is shown, tags need not be part of it.
Target: T1, AlpZ (Streptomyces ambofaciens) (UniProt Q6VMG9)
T1 sequence (looked up, limits assumed): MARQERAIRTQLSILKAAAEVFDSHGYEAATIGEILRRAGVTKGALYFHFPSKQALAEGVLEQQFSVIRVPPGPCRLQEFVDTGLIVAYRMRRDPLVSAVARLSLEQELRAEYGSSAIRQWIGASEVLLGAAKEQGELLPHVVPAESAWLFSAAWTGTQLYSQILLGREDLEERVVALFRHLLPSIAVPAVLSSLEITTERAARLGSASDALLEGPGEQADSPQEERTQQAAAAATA
Assay: switchSENSE
Details: switchSENSE: PE40 pH 7.4 (10 mM Na phosphate, 40 mM NaCl, 0.05% Tween20, 50 uM EDTA, 50 uM EGTA), 30 C, recombinant protein, label: fluorescent nanolever on the switchSENSE chip

Measured: binding result

CTCACATTGACAAACCGACTGTGCTGTTTTTTTATCAGGGATCAGCGTTCGATGCTTCCGACTAATCAGCCATATCAGCTTACGACTA / CCCTGATAAAAAAACAGCACAGTCGGTTTGTCAATGTGAG [nanoAREV dsoverhang]
no binding: extract with signaling molecule 25 ug/ml, kOFF 1.04e-2 s-1, no protein bound after 5 min | extract with signaling molecule 50 ug/ml, kOFF 1.79e-2 s-1, no protein bound after 5 min | extract with signaling molecule 0.5 mg/ml added to complex, release, kOFF 1.95e-1 s-1

Source: publication PMC7343708, “Molecular Dynamics to Elucidate the DNA-Binding Activity of AlpZ, a Member of the Gamma-Butyrolactone Receptor Family in Streptomyces ambofaciens”
